Laboratory results taken from article PMC10781586.
These are yes or no findings as the source states them, for the method shown. Binding seen in cells or lysates may run through a third protein. Some binding calls cover weakened binding; strength is not graded here. Where a sequence is shown, tags or fusion partners need not be part of it.

Amino acid sequences for entries named in this document (tags omitted).
UniProt P22227: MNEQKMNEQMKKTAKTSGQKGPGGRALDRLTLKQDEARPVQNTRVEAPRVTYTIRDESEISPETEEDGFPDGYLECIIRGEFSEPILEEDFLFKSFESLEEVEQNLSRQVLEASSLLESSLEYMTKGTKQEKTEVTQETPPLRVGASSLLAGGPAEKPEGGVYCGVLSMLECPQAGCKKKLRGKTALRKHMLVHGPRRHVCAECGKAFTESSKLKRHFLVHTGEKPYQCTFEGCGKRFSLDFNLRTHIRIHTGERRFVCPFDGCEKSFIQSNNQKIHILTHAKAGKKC

What was measured:
Assay in all cases: co-IP; HA-RNF12 immunoprecipitated with anti-HA magnetic beads from 1 mg lysate of Rlim-/y; Zfp42-/- mESCs co-expressing FLAG-REX1, cells treated with MG132 for 2 h; overnight at 4°C; washes with lysis buffer with 500 mM NaCl; blot for FLAG-REX1
[1] = target: T1, HA-tagged mouse RNF12 WT (1-600) (mouse) (UniProt Q9WTV7)
T1 sequence: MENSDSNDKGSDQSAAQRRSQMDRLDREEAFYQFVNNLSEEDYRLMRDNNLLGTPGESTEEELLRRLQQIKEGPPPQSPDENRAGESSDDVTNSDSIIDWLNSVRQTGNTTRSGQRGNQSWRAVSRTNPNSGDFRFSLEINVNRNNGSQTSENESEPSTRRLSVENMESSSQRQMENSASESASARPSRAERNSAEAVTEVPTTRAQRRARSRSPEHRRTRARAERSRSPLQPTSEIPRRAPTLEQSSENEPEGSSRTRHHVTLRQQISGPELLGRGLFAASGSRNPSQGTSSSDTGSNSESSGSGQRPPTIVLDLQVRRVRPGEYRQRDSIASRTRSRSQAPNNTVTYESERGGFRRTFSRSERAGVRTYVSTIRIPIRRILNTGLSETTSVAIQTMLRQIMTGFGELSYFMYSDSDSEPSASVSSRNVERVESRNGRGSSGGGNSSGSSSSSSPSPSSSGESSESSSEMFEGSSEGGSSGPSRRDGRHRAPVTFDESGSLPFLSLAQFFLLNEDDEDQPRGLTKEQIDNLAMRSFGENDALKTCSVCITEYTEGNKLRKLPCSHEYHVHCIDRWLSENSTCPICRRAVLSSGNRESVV

[2] = target: T2, HA-tagged mouse RNF12 ΔBR2 (Δ349-381) (mouse) (UniProt Q9WTV7)
T2 sequence: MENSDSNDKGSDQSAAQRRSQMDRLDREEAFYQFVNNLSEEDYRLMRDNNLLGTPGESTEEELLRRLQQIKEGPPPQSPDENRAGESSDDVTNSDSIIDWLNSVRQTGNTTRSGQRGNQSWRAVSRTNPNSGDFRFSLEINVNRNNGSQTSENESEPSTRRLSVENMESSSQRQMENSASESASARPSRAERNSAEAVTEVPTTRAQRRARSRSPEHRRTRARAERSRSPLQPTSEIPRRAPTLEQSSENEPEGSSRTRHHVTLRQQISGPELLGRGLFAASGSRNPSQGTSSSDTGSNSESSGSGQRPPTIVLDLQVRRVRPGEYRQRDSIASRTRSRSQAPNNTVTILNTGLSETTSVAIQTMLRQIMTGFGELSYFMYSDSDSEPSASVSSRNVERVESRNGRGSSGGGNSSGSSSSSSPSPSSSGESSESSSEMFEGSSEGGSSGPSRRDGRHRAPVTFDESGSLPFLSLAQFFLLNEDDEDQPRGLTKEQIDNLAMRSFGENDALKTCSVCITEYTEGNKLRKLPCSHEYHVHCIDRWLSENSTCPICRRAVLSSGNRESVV

[3] = target: T3, HA-tagged mouse RNF12 ΔN (Δ1-206) (mouse) (UniProt Q9WTV7)
T3 sequence: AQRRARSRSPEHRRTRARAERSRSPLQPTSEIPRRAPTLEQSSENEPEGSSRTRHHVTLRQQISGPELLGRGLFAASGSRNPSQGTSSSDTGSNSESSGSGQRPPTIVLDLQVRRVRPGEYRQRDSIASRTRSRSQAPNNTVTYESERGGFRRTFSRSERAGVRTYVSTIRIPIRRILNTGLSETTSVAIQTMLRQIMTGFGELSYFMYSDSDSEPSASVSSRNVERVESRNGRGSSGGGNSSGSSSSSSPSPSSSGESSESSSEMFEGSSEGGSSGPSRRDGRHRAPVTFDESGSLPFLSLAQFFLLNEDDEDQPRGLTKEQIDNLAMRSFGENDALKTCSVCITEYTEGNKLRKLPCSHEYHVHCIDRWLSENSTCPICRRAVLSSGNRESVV

Measured: binding

FLAG-REX1 (3XFLAG mouse Rex1) (from UniProt P22227 1-288)
binds: all assays above
